The target of test [1] is T1, mouse CCTβ subunit (mouse) (UniProt P80314).
T1 sequence (looked up): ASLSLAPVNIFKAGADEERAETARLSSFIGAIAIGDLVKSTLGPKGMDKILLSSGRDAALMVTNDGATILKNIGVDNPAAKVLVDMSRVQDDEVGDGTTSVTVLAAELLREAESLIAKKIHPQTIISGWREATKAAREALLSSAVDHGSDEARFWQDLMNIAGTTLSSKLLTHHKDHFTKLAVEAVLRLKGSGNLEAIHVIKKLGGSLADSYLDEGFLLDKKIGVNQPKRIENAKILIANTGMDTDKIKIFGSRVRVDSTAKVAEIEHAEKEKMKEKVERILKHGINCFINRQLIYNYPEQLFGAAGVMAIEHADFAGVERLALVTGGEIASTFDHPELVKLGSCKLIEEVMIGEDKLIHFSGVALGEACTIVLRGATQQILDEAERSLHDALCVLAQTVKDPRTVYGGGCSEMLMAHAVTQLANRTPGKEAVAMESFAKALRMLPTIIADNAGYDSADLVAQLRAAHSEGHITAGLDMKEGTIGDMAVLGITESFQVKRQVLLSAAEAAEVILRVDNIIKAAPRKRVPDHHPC
Nature of the test: superimposable bands, 6% non-denaturing PAGE Western blot of mouse testis sucrose fractions 13 and 14, subunit-specific antibodies. A general note: Immunoblotting shows a protein as a band on a membrane.

Protein sequences, listed by entry. Tags and fused reporters are not part of them. Residues count along the entry.
UniProt P80316, residues 2-541: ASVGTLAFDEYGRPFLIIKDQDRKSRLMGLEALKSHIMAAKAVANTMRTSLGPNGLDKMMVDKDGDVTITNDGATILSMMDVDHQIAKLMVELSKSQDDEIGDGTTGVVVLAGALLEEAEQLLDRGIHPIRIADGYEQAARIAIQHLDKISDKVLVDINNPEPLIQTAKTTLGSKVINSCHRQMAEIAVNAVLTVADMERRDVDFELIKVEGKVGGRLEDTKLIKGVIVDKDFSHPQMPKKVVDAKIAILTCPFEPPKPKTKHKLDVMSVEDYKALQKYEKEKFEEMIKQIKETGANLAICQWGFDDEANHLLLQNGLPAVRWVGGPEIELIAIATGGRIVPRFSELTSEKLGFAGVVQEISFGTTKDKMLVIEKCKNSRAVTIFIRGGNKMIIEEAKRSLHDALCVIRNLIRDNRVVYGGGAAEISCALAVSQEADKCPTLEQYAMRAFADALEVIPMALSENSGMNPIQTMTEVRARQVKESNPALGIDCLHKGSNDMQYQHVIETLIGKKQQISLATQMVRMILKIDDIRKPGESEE
UniProt P80317, residues 2-531: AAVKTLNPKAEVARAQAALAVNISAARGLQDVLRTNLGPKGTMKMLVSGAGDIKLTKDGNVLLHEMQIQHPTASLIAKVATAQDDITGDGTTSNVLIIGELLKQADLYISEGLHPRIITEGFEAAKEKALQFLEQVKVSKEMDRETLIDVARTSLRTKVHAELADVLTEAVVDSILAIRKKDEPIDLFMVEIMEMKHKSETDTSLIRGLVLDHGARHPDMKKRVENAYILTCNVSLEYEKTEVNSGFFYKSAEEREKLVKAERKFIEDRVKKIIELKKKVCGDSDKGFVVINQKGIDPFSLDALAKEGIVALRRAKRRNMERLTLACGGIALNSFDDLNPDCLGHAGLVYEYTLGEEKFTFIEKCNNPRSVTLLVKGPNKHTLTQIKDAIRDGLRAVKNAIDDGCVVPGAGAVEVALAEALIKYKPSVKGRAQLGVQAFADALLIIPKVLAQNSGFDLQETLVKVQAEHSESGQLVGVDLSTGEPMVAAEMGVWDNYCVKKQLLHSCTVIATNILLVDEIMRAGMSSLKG

Test [2] concerns the target mouse CCTε subunit (mouse) (UniProt P80316). The description is as above.

Results are given in words; binding and its absence hold for the method and conditions named. Some results given as binding are weak or reduced against the parent protein; the word gives no strength.

As for “mouse CCTζ subunit (from UniProt P80317 2-531)”, the binding entry in test [1] and in test [2] was “binds” in each case.

(Values after patent US7018791B1, “Binding complexes” (Institute of Cancer Research: Royal Cancer Hospital, priority 1997, dated 2006).)
